Data taken from patent US4100152A, “Peptides” (Takeda Chemical Industries, Ltd., priority 1976, dated 1978).
At least one peptide structure holds a part that was inferred or is arguable (an end, a ring closure or a residue).

How the values were obtained:
Format in all cases: in vivo
[1] = system: mice (ICR/JCL, male, 4 weeks old); assay: Anaesthesia antagonism (pentobarbital sodium, recovery of righting reflex); details: ratio of effect to that of the same dose of TRH (TRH = 1), 55 mg/kg pentobarbital sodium i.p., compound i.v. after 10 minutes
[2] = system: mice (ICR/JCL, male, 4 weeks old); assay: Activity-increasing action (spontaneous activity in activity wheel); details: ratio of effect to that of the same dose of TRH (TRH = 1), cumulative wheel rotations during 3 hours after i.v. administration
Description: (3) Activity-increasing action
Using groups of 10 mice (ICR/JCL, male, 4 weeks old), each mouse was placed in an activity wheel and the activity-increasing action of the medication on the mouse was observed. The cumulative number of rotations caused by the spontaneous activity of the mice during a period of 3 hours following the intravenous administration of compound (I) was compared with the number of revolutions for the control group.
(§1) The relative effects of compound (I) by the above 4 procedures were expressed in terms of the ratios of effect of the same dose of compound (I) as that of TRH with the effects of TRH being taken as unity.

[3] = system: male mice (ICR/JCL) with one caudate nucleus destroyed; assay: Dopamine activity-potentiating effect (apomorphine-induced turning, caudate nucleus destroyed, reserpine premedication); details: ratio of effect to that of the same dose of TRH (TRH = 1), compound given 30 minutes before 0.25 mg/kg apomorphine i.p., reserpine 2 mg/kg i.p. premedication
Description: (4) Dopamine activity-potentiating effect
Using groups of 10 male mice (ICR/JCL) with one of its caudate nuclei destroyed by suction the effects of compound (I) upon the number of turns and the percent incidence of head turning as caused by 0.25 mg/kg of apomorphine (I.P.), i.e., a dopamine-receptor stimulant, under the influence of premedication (18-22 hours) with 2 mg/kg of reserpine (i.p.) were examined.
Thus, compound (I) was given 30 minutes before the administration of apomorphine and the result was compared with that for the untreated (control group). This test was performed to ascertain the potentiating effect of the compound upon the central nervous system action of dopamine, the principle of the test being the same as that of the experiment performed by Everett et al. [Fed. Proc. 23, 198, (1964)] for testing the DOPA synergistic effect which involved the administration of Dl-DOPA.
as §1

## NC(=O)[C@@H]1CCCN1C(=O)[C@H](Cc1c[nH]cn1)NC(=O)[C@@H]1CCC(=O)O1 [Cbl-His-Pro-NH2, Cbl His-Pro.NH2]
[1]
  Anaesthesia antagonism: 1.25
[2]
  Spontaneous activity-increasing effect: 1.0
[3]
  Dopamine-potentiating effect: 16.00
